# Primary screen of a compound library

Measurements from “University of Dundee, Small-Polar-MMV Screening Library” (2021), ChEMBL document CHEMBL3988442.

Mtb cholesterol medium: 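Growth of Mycobacterium tuberculosis over 4 days (cholesterol / DPPC medium with tyloxapol); the read-out is not stated. Concentration: 50 µM. Higher reads as more growth inhibition (inferred: compounds with an IC50 in retests scored well above the rest). About 69,000 compounds were tested under these conditions; 0.54% (about 370) showed 50% or more at least once.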
Mtb glucose medium: 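Growth of Mycobacterium tuberculosis over 3 days (7H9 medium with glucose and tyloxapol); the read-out is not stated. Concentration: 50 µM. The record gives no direction; compounds that gave an IC50 in retests scored well above the rest, so higher reads as more growth inhibition. Size under these conditions: about 69,000 compounds, about 760 of them at 50% or above in at least one test.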

Results are given as percent effect. The record does not define 0% and 100%; most values in the screen are far below 50% and negative numbers occur (in some assays of this library far below -100). This is an unselected part of the compounds tested. Two or more numbers in one place are separate tests of the same structure; such repeats can differ widely.

{"smiles": "O=C(NCC1CCS(=O)(=O)C1)N(Cc1ccncc1)C1CC1", "stereo": "configuration not stated", "Mtb cholesterol medium": -8.089, "Mtb glucose medium": 15.16}
{"smiles": "CCOC(=O)NCCC(O)c1ccoc1", "stereo": "configuration not stated", "Mtb cholesterol medium": 3.041, "Mtb glucose medium": 9.977}
{"smiles": "N#Cc1c(Cl)nsc1NCCCN1C(=O)COc2ccccc21", "Mtb cholesterol medium": 4.694, "Mtb glucose medium": "34.87 and 27.83"}
{"smiles": "COc1cc2c(cc1CNC(Cc1cccs1)c1nccs1)OCCO2.Cl", "stereo": "configuration not stated", "Mtb cholesterol medium": "13.68 and 19.3", "Mtb glucose medium": 12.97}
{"smiles": "CC(=O)N(C)Cc1cccc(NC(=O)N(C)CCc2cccs2)c1", "Mtb cholesterol medium": 31.3, "Mtb glucose medium": 8.588}
{"smiles": "Cc1ccc(CNC(=O)Cn2c(=O)c3cccnc3n2C)cc1F", "Mtb cholesterol medium": -7.12, "Mtb glucose medium": -11.99}
{"smiles": "Cn1cnc2c1CCN(CC(=O)N(Cc1ccccc1F)C1CC1)C2", "Mtb cholesterol medium": -3.254, "Mtb glucose medium": "10.57 and 5.099"}
{"smiles": "c1nc2c(c(N3CCOCC3)n1)CCNCC2", "Mtb cholesterol medium": -8.147, "Mtb glucose medium": -22.65}
{"smiles": "Cc1cc(C)nc(N2CCN(Cc3nccn3C)CC2)n1.O=CO", "Mtb cholesterol medium": -5.413, "Mtb glucose medium": 18.59}
{"smiles": "CC(NC(=O)NCCCn1cncn1)c1ccncc1", "stereo": "configuration not stated", "Mtb cholesterol medium": 1.873, "Mtb glucose medium": 14.63}
{"smiles": "CCN(CC)C(=O)CN1CCc2c(nc(C3CCNCC3)nc2NC)C1.Cl", "Mtb cholesterol medium": -16.61, "Mtb glucose medium": -23.48}
{"smiles": "Cc1cnc(N2CC[C@@H](N3CCOCC3)[C@@H]2Cc2ccncc2)nc1.O=C(O)C(F)(F)F.O=C(O)C(F)(F)F", "Mtb cholesterol medium": 3.608, "Mtb glucose medium": "1.237 and -9.761"}
{"smiles": "N#Cc1ccc(CC(=O)N2CCCC(n3cccn3)C2)cc1", "stereo": "configuration not stated", "Mtb cholesterol medium": 23.16, "Mtb glucose medium": 33.36}
{"smiles": "Cc1noc([C@@H]2CCCN2C(=O)C2CCN(C(=O)C3CCC3)CC2)n1", "Mtb cholesterol medium": -37.99, "Mtb glucose medium": "-10.18 and -26.77"}
{"smiles": "CN1CC[C@]2(CN(Cc3nccs3)C[C@H]2c2ccccc2)C1=O.O=C(O)C(F)(F)F", "Mtb cholesterol medium": -16.88, "Mtb glucose medium": 6.393}
{"smiles": "Cc1cc(C)nc(CN(C)C(=O)c2cccc(CCC(C)(C)O)c2)c1", "Mtb cholesterol medium": "8.823 and -1.844", "Mtb glucose medium": 5.321}
{"smiles": "COc1ccc(N2Cc3nc(=O)[nH]n3C2=O)cc1", "Mtb cholesterol medium": "-9.474 and -6.011", "Mtb glucose medium": -9.834}
{"smiles": "O=c1[nH]c2ncccc2n1C1CCCC1", "Mtb cholesterol medium": 0.4706, "Mtb glucose medium": "0.757 and 8.603"}
{"smiles": "Cc1cc(NS(=O)(=O)CC2CCCCO2)ccc1F", "stereo": "configuration not stated", "Mtb cholesterol medium": 5.173, "Mtb glucose medium": -8.776}
{"smiles": "[H][C@@]12CNC[C@]1([H])CN(C(=O)C1CCC1)C2", "Mtb cholesterol medium": -14.92, "Mtb glucose medium": -22.45}
{"smiles": "CCN(CC)C(CNS(=O)(=O)NCc1ccccc1)c1ccco1", "stereo": "configuration not stated", "Mtb cholesterol medium": -24.28, "Mtb glucose medium": 11.25}
{"smiles": "CCc1nnc(CN2CCCC(c3cc(C(N)=O)[nH]n3)C2)o1", "stereo": "configuration not stated", "Mtb cholesterol medium": -8.765, "Mtb glucose medium": "-0.06681 and 8.993"}
{"smiles": "Cn1ccnc1CN1CCCC(CCCc2ccccn2)(C(N)=O)C1", "stereo": "configuration not stated", "Mtb cholesterol medium": 2.246, "Mtb glucose medium": -9.922}
{"smiles": "CCOC(=O)CC1CCCCN1C(=O)CCc1cc(Cl)no1", "stereo": "configuration not stated", "Mtb cholesterol medium": -11.64, "Mtb glucose medium": -8.155}
{"smiles": "O=C(O)C(F)(F)F.[H][C@]12CC[C@@]3(N=C(CC)N(C)C3=O)[C@@]1([H])CN(Cc1ccc(Cl)cc1)C2", "Mtb cholesterol medium": 0.156, "Mtb glucose medium": 3.086}
{"smiles": "CC(C)c1cc(CN(C)C(=O)C(C)N2CCc3ccccc3C2)no1", "stereo": "configuration not stated", "Mtb cholesterol medium": -68.36, "Mtb glucose medium": -54.31}
{"smiles": "CNC(=O)N1CCOC(C)(c2cnn(C)c2)C1", "stereo": "configuration not stated", "Mtb cholesterol medium": 23.38, "Mtb glucose medium": 12.74}
{"smiles": "Cc1cc(CS(=O)(=O)N(C)C(C)c2ccc(F)cc2)on1", "stereo": "configuration not stated", "Mtb cholesterol medium": -4.38, "Mtb glucose medium": "4.644 and -2.511"}
{"smiles": "CN(C)c1ccc(C(=O)Nc2ccn(CC(N)=O)n2)cn1", "Mtb cholesterol medium": -20.39, "Mtb glucose medium": -4.877}
{"smiles": "CC(C)c1nc(S(=O)(=O)N(C)c2cc(F)ccc2F)c[nH]1", "Mtb cholesterol medium": "-7.41 and -7.031", "Mtb glucose medium": "-12.57 and -2.552"}
{"smiles": "Cc1nn(C)c(Cl)c1C1CCCN1Cc1cccc(C(N)=O)c1", "stereo": "configuration not stated", "Mtb cholesterol medium": -9.201, "Mtb glucose medium": -22.61}
{"smiles": "CC(C)Cc1noc(CNc2cccc(-c3nnnn3C)c2)n1", "Mtb cholesterol medium": 15.59, "Mtb glucose medium": 29.2}
{"smiles": "O=C(Nc1ccc(Cn2cccn2)cc1)N1CCC(CO)CC1", "Mtb cholesterol medium": 18.12, "Mtb glucose medium": 10.63}
{"smiles": "Cc1cccc(CN2Cc3[nH]nc(COCc4nccs4)c3C2)n1.O=C(O)C(F)(F)F", "Mtb cholesterol medium": 23.97, "Mtb glucose medium": "8.319 and 1.305"}
{"smiles": "CN1C(=O)CC(c2cnn(C)c2)C12CCN(C(=O)C1CC=CC1)CC2", "stereo": "configuration not stated", "Mtb cholesterol medium": -14.17, "Mtb glucose medium": 2.084}
{"smiles": "Cc1ccc(C(=O)N2CCN(c3ncnc4nc(N)ccc34)CC2)cc1", "Mtb cholesterol medium": 4.742, "Mtb glucose medium": "12.31 and -14.18"}
{"smiles": "CC1CN(CC(=O)NCc2ccc(F)cc2)CCN1c1nccs1", "stereo": "configuration not stated", "Mtb cholesterol medium": 13.71, "Mtb glucose medium": -7.522}
{"smiles": "COc1ccc(CNC2CCCc3nc(N(C)C)ncc32)c(OC)c1", "stereo": "configuration not stated", "Mtb cholesterol medium": -16.84, "Mtb glucose medium": "-3.796 and 3.311"}
{"smiles": "CCN1CCN(C(=O)C(C)N2CCc3cncnc3C2)CC1", "stereo": "configuration not stated", "Mtb cholesterol medium": -5.959, "Mtb glucose medium": -13.04}
{"smiles": "O=C(O)C(F)(F)F.[H][C@@]12CN(c3ccc(C)nn3)C[C@]1([H])OCCN2CC1CC1", "Mtb cholesterol medium": -3.918, "Mtb glucose medium": 5.261}
{"smiles": "c1cncc(-c2nnc([C@H]3CCN(CC4CC4)C3)o2)c1", "Mtb cholesterol medium": 0.9894, "Mtb glucose medium": "2.128 and 2.915"}
{"smiles": "CCc1ccc(C(=O)N2CCCC(c3noc(CC)n3)C2)o1", "stereo": "configuration not stated", "Mtb cholesterol medium": 41.65, "Mtb glucose medium": 18.84}
{"smiles": "O=C(O)C(F)(F)F.[H][C@]12CCC(=O)N(CC3CCOCC3)[C@@]1([H])CCN2Cc1c(C)noc1C", "Mtb cholesterol medium": -18.99, "Mtb glucose medium": -14.57}
{"smiles": "CCOc1ccc(CNC(=O)N(C)Cc2ncnn2C)cc1C", "Mtb cholesterol medium": 11.67, "Mtb glucose medium": 12.45}
{"smiles": "[H][C@]12CCCCN1CCC[C@@]2(O)Cn1cnc2cc(C)c(C)cc21", "Mtb cholesterol medium": 2.245, "Mtb glucose medium": "-11.28 and -5.186"}